No constants are given. Whether binding was seen depends on the method and setting. Tags and fused reporters may be left off the sequences shown.
Biological target: T1, Gst‐Pdia4 (recombinant) (UniProt P13667)
T1 sequence: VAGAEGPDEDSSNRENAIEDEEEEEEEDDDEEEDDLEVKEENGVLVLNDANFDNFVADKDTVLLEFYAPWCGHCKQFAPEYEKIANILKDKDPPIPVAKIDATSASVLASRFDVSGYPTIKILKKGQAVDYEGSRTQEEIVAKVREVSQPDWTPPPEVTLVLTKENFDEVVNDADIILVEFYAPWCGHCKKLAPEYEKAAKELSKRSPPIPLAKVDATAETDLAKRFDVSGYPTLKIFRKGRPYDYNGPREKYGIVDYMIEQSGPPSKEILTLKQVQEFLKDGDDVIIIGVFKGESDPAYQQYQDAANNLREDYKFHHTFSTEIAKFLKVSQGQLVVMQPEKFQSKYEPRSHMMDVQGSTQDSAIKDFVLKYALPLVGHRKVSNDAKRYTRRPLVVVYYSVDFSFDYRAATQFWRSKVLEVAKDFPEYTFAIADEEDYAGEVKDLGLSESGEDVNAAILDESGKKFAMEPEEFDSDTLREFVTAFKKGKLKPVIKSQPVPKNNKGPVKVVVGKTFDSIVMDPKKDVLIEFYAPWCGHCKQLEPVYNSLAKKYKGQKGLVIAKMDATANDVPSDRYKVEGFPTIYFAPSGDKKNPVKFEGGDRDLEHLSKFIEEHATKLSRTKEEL
Experiment: pull-down; recombinant Gst-Pdia4 incubated with His-tagged Nox1, Nox2, Nox3 or Nox4 for 1 h, then Gst beads; immunoblot; both purified

Protein sequences, listed by entry. Tags and fused reporters are not part of them.
UniProt Q9Y5S8: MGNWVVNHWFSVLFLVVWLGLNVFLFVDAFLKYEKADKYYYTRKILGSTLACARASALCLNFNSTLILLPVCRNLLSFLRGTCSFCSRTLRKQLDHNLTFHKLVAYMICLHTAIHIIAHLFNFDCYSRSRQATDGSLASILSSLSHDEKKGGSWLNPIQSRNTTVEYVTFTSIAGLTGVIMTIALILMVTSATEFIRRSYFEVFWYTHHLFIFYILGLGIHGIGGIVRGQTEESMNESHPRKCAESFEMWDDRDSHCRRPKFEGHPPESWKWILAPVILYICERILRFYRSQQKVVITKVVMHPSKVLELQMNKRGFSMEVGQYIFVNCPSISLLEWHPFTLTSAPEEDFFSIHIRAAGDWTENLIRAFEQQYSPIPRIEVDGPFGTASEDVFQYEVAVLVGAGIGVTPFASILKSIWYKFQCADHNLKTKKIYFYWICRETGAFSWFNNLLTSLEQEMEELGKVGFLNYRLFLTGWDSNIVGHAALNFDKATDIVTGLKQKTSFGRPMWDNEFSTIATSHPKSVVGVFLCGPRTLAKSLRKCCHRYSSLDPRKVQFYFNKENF

- binding: no binding
Substance: His‐tagged Nox1 (recombinant) (from UniProt Q9Y5S8 1-564)
